The target in the assay is HA-FZD5-Nluc (UniProt Q13467). As to the kind of experiment: FRET or BRET. (In BRET a luciferase serves as donor, and the signal depends on an acceptor being close.)

Sequences of proteins named here, by UniProt entry; tags and fusion partners are left off. A change or cut given only in a name is not applied to a line headed by its entry. Residues count along the entry.
UniProt Q13467, 27-585, stated change not applied: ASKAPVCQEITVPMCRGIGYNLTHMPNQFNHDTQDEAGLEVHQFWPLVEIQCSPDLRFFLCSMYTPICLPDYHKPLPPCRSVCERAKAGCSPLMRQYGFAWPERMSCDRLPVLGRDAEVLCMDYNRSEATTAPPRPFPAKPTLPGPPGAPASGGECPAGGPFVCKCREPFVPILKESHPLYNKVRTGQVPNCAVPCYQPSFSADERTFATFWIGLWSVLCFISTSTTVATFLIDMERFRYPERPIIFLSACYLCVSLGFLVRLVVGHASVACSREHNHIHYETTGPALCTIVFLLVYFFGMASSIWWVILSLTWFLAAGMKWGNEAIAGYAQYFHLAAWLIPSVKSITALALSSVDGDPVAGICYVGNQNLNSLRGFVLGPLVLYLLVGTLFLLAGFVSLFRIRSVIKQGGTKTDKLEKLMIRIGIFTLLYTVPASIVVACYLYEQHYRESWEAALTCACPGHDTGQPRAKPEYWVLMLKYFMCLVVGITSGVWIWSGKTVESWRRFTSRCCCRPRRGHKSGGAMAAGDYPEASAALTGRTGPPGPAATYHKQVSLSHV

No constants are given. Whether binding was seen depends on the method and setting. Binding seen in cells or lysates may run through a third protein.

In the case of ΔDEP Venus-DVL2 (from UniProt O14641), the binding result was “no binding”.

The values above are taken from paper doi:10.1101/2022.07.19.500578.
